# Values of other authors as cited in patent publication US20100256048A1, “POLYPEPTIDE COMPOUND” (Astellas Pharma Inc., priority 2007, published 2010).
# Some results were stated once for a whole list of compounds, not compound by compound.
# Test system: invasive pulmonary aspergillosis
# Settings: standard drugs, patients; background statement; cited from earlier work
smiles,measurement,value
C[C@@H](c1ncncc1F)[C@](O)(Cn1cncn1)c1ccc(F)cc1F [voriconazole],rate of efficacy,≤ 60%
